## Assay results

The results are deposited in PubChem (AID504749; NCATS, 2011).

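A panel of P. falciparum strains inside erythrocytes is exposed to compounds for three days, then a DNA-binding dye reports the amount of parasite DNA.
Each compound was titrated across a series from about 0.000037 to 29 µM.
The number is the fitted AC50, the concentration giving a half-maximal change in signal; a lower value means higher potency, whether the curve shows a decrease or an increase.
Calls follow the curve class and fit quality: every row here is inconclusive, covering signal-raising curves and weak, poorly fitted, partial or highest-dose-only inhibition curves.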

Values are in nM.
Every entry below has the call inconclusive.
Only part of the assay is shown, chiefly results filed as inconclusive.
A potency from a partial, single-point or poor curve is only a rough figure.
The first word of each remark tells which way the curve ran; it can be opposite to the aim of the assay.

structure | condition | potency (nM) | curve
CN(C)CCCN1c2ccccc2Sc2ccc(C(F)(F)F)cc21 | 3D7 | 17782 | inhibitor, single point
CN(C)CCCN1c2ccccc2Sc2ccc(C(F)(F)F)cc21 | P93_24 | 12589 | inhibitor, partial curve
CN(C)CCCN1c2ccccc2Sc2ccc(C(F)(F)F)cc21 | CP286 | 11220 | inhibitor, partial curve
CN(C)CCCN1c2ccccc2Sc2ccc(C(F)(F)F)cc21 | DFO2036 | 8912 | inhibitor, partial curve, poor fit
CN(C)CCCN1c2ccccc2Sc2ccc(C(F)(F)F)cc21 | CP237 | 11220 | inhibitor, single point
CN(C)CCCN1c2ccccc2Sc2ccc(C(F)(F)F)cc21 | JCK | 10000 | inhibitor, single point
CN(C)CCCN1c2ccccc2Sc2ccc(C(F)(F)F)cc21 | Dd2 | 3981 | inhibitor, partial curve
CN(C)CCCN1c2ccccc2Sc2ccc(C(F)(F)F)cc21 | CP194 | 8492 | inhibitor, partial curve, poor fit
CN(C)CCCN1c2ccccc2Sc2ccc(C(F)(F)F)cc21 | AS120 | 11220 | inhibitor, single point
CN(C)CCCN1c2ccccc2Sc2ccc(C(F)(F)F)cc21 | P94_40 | 11220 | inhibitor, partial curve
CN(C)CCCN1c2ccccc2Sc2ccc(C(F)(F)F)cc21 | PC26 | 3793 | inhibitor, partial curve
CN(C)CCCN1c2ccccc2Sc2ccc(C(F)(F)F)cc21 | GB4 | 13459 | inhibitor, partial curve
c1ccc(C2CC2)c(OCC2=NCCN2)c1 | DIV17 | 19011 | inhibitor, partial curve, poor fit
c1ccc(C2CC2)c(OCC2=NCCN2)c1 | CP262 | 19011 | activator, partial curve, poor fit
c1ccc(C2CC2)c(OCC2=NCCN2)c1 | GB4 | 11995 | inhibitor, partial curve
c1ccc(C2CC2)c(OCC2=NCCN2)c1 | 7G8 | 10000 | inhibitor, partial curve, poor fit
c1ccc(C2CC2)c(OCC2=NCCN2)c1 | CP237 | 11220 | inhibitor, single point
c1ccc(C2CC2)c(OCC2=NCCN2)c1 | DIV14 | 19011 | inhibitor, partial curve, poor fit
c1ccc(C2CC2)c(OCC2=NCCN2)c1 | CP247 | 3548 | inhibitor, single point
c1ccc(C2CC2)c(OCC2=NCCN2)c1 | Dd2 | 11220 | inhibitor, partial curve
CC1(C)O[C@@H]2C[C@@H]3[C@H]4C[C@@H](F)C5=CC(=O)C=C[C@]5(C)[C@@]4(F)[C@@H](O)C[C@]3(C)[C@]2(C(=O)CO)O1 | CP201 | 19011 | inhibitor, single point
CC1(C)O[C@@H]2C[C@@H]3[C@H]4C[C@@H](F)C5=CC(=O)C=C[C@]5(C)[C@@]4(F)[C@@H](O)C[C@]3(C)[C@]2(C(=O)CO)O1 | DIV14 | 19011 | inhibitor, single point
CC1(C)O[C@@H]2C[C@@H]3[C@H]4C[C@@H](F)C5=CC(=O)C=C[C@]5(C)[C@@]4(F)[C@@H](O)C[C@]3(C)[C@]2(C(=O)CO)O1 | ICS | 17782 | inhibitor, single point
CC1(C)O[C@@H]2C[C@@H]3[C@H]4C[C@@H](F)C5=CC(=O)C=C[C@]5(C)[C@@]4(F)[C@@H](O)C[C@]3(C)[C@]2(C(=O)CO)O1 | PC26 | 19011 | inhibitor, single point
CC1(C)O[C@@H]2C[C@@H]3[C@H]4C[C@@H](F)C5=CC(=O)C=C[C@]5(C)[C@@]4(F)[C@@H](O)C[C@]3(C)[C@]2(C(=O)CO)O1 | CP329 | 19011 | inhibitor, single point
CC1(C)O[C@@H]2C[C@@H]3[C@H]4C[C@@H](F)C5=CC(=O)C=C[C@]5(C)[C@@]4(F)[C@@H](O)C[C@]3(C)[C@]2(C(=O)CO)O1 | 7G8 | 11220 | inhibitor, single point
CC1(C)O[C@@H]2C[C@@H]3[C@H]4C[C@@H](F)C5=CC(=O)C=C[C@]5(C)[C@@]4(F)[C@@H](O)C[C@]3(C)[C@]2(C(=O)CO)O1 | CP315 | 19011 | inhibitor, single point
CC1(C)O[C@@H]2C[C@@H]3[C@H]4C[C@@H](F)C5=CC(=O)C=C[C@]5(C)[C@@]4(F)[C@@H](O)C[C@]3(C)[C@]2(C(=O)CO)O1 | GB4 | 16944 | inhibitor, single point
CC1(C)O[C@@H]2C[C@@H]3[C@H]4C[C@@H](F)C5=CC(=O)C=C[C@]5(C)[C@@]4(F)[C@@H](O)C[C@]3(C)[C@]2(C(=O)CO)O1 | CP215 | 19011 | inhibitor, single point
CC1(C)O[C@@H]2C[C@@H]3[C@H]4C[C@@H](F)C5=CC(=O)C=C[C@]5(C)[C@@]4(F)[C@@H](O)C[C@]3(C)[C@]2(C(=O)CO)O1 | CP266 | 19011 | inhibitor, single point
CC1(C)O[C@@H]2C[C@@H]3[C@H]4C[C@@H](F)C5=CC(=O)C=C[C@]5(C)[C@@]4(F)[C@@H](O)C[C@]3(C)[C@]2(C(=O)CO)O1 | CP297 | 16944 | inhibitor, single point
CC1(C)O[C@@H]2C[C@@H]3[C@H]4C[C@@H](F)C5=CC(=O)C=C[C@]5(C)[C@@]4(F)[C@@H](O)C[C@]3(C)[C@]2(C(=O)CO)O1 | CP305 | 11995 | inhibitor, single point

Some entries from above, unchanged:

{"structure": "CN(C)CCCN1c2ccccc2Sc2ccc(C(F)(F)F)cc21", "condition": "P94_40", "potency (nM)": "11220", "curve": "inhibitor, partial curve"}
{"structure": "CN(C)CCCN1c2ccccc2Sc2ccc(C(F)(F)F)cc21", "condition": "AS120", "potency (nM)": "11220", "curve": "inhibitor, single point"}
{"structure": "c1ccc(C2CC2)c(OCC2=NCCN2)c1", "condition": "DIV14", "potency (nM)": "19011", "curve": "inhibitor, partial curve, poor fit"}